Assay results from patent US20230295323A1.
Results are given in words; binding and its absence hold for the method and conditions named. Some binding calls cover weakened binding; strength is not graded here.

The chains behind the UniProt entries cited, without tags or fusion partners. Where a name states a change or a piece, a line headed by the entry shows the natural chain unless it says otherwise. Residues count along the entry.
UniProt Q9Y5U5: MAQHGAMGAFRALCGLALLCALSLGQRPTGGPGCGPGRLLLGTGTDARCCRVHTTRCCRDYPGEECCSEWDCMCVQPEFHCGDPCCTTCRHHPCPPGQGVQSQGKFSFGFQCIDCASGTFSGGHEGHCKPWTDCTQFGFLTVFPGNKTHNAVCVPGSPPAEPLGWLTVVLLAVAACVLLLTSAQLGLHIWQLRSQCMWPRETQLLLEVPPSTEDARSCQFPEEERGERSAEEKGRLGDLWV
human GITR on cells (293T-GITR, Jurkat-hGITR / Jurkat-GITR, Jurkat-GITR-NF-kB, 293T-GITR-NFkb-luc, primary CD4 T cells): residues 26-241 of Q9Y5U5
human GITR (ECD)-mFc: residues 26-162 of Q9Y5U5

How the values were obtained:
[1] = molecular target: human GITR (ECD)-mFc (human) (UniProt Q9Y5U5); assay: ELISA, plate-coated GITR-mFc
[2] = molecular target: human GITR on cells (293T-GITR, Jurkat-hGITR / Jurkat-GITR, Jurkat-GITR-NF-kB, 293T-GITR-NFkb-luc, primary CD4 T cells) (human) (UniProt Q9Y5U5); assay: FACS on Jurkat-GITR cells (FIG. 2)
[3] = molecular target: human GITR (ECD)-mFc (human) (UniProt Q9Y5U5); assay: ELISA, plate-coated GITR-mFc (FIG. 1)

binding [1]: binds
binding [2]: binds
binding [3]: binds
B1: 3F5 (humanized) -hIgG1 (antibody, V domains shown)
VH: QVQLVQSGAEVKKPGASVKVSCKASGYTFTDHYMHWVRQAPGQGLEWIGDINPNSGGTINNQNFKGRATLTVDKSISTAYMELSRLRSDDTAVYYCARGFSGLAYWGQGTLVTVSS
VL: DIVMTQTPLSSPVTLGQPASISCKSSQSLLDRDGKTYLNWLQQRPGQPPRRLIYLVSILDSGVPDRFSGSGAGTDFTLKISRVEAEDVGVYYCWQGTHFPWTFGQGTKLEIKR
